Reference: PMC7250844
No constants are given. Whether binding was seen depends on the method and setting. Binding seen in cells or lysates may run through a third protein. Some results given as binding are weak or reduced against the parent protein; the word gives no strength.

The chains behind the UniProt entries cited, without tags or fusion partners. Where a name states a change or a piece, a line headed by the entry shows the natural chain unless it says otherwise.
UniProt P19474: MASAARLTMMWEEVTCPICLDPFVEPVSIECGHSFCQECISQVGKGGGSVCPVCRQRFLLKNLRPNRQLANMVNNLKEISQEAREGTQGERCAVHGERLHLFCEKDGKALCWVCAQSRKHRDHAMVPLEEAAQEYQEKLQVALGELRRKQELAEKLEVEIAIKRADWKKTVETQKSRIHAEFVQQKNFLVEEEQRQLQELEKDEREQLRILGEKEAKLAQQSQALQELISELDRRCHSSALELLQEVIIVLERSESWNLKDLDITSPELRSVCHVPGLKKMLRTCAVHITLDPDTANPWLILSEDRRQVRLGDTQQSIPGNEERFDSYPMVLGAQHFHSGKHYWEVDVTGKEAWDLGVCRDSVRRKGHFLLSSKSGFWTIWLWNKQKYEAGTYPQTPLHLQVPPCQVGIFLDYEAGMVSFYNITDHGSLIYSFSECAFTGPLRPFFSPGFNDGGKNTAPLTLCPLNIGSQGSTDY
UniProt Q7L5N1: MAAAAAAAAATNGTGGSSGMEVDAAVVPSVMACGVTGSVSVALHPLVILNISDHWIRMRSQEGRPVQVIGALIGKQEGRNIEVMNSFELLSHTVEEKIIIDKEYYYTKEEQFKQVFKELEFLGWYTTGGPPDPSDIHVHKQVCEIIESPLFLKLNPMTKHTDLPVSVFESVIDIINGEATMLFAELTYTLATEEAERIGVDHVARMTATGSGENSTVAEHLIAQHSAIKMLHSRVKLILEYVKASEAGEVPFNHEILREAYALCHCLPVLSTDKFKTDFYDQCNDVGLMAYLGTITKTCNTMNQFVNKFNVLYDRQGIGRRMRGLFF

How the values were obtained:
[1] = biological target: TRIM21, endogenous (human (endogenous in HEK293T)) (UniProt P19474); test: co-IP; endogenous proteins; HEK293T cells treated with MG132 for 6 h; TRIM21 antibody or control IgG overnight at 4 °C, then Protein A or Protein G beads; blotted with anti-TRIM21 and anti-CSN6
Flag-TRIM21 (human) [2] = biological target: Flag-TRIM21 (human) (UniProt P19474); test: co-IP; Flag-TRIM21 expressed in HCT116 cells; MG132 for 6 h; lysis buffer 50 mM Tris-Cl pH 7.5, 0.1% NP-40, 0.1% Triton-100, 150 mM NaCl; Anti-Flag M2 Magnetic Beads overnight at 4 °C; associated CSN6 detected by western blotting
Flag-TRIM21 (human) [3] = biological target: Flag-TRIM21 (human) (UniProt P19474); test: co-IP; HEK293T cells co-transfected with tagged constructs; MG132 for 6 h; Anti-Flag M2 Magnetic Beads overnight at 4 °C; blotted with anti-Flag, anti-HA or anti-Myc; with or without co-expressed CUL1 (Fig. 3b)

Substance	binding [1]	binding (Flag-TRIM21 (human) [2])	binding (Flag-TRIM21 (human) [3])
COP9 signalosome subunit 6 (CSN6), endogenous (from UniProt Q7L5N1 1-327)	binds	binds	
HA-CSN6 (from UniProt Q7L5N1 1-327)			binds
HA-CSN6-N terminal (1-174 aa) (from UniProt Q7L5N1 1-174) (domain or fragment)			binds
Myc-CSN6 (from UniProt Q7L5N1 1-327)			binds
